Consider 1 sequence from article PMC4219657, “Structural and Mechanistic Basis of Zinc Regulation Across the E. coli Zur Regulon” (PLoS Biology, 2014).

What all share (assay): EMSA
For orientation: In EMSA bound probe runs differently from free probe, usually more slowly.

In data set [1] the target is T1, Zur C103S (Escherichia coli) (UniProt P0AC51).
T1 sequence (looked up, limits assumed): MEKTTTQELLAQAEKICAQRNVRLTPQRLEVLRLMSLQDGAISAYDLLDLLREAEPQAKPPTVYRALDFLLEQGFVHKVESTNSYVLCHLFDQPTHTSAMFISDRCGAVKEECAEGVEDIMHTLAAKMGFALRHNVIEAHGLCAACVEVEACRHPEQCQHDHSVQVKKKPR
The following applies: EMSA: 10 mM Tris pH 8.0, 10 mM NaCl, 100 mM K-glutamate, 167 mM KCl, 1.5 mM MgCl2, 1 mM CaCl2, 50 uM ZnSO4, 1 mM DTT, 0.1 ug/ml BSA, 2 ug/ml salmon sperm DNA, recombinant protein, label: 5'-Cy5 on strand 1.

Data set [2] deals with T2, Zur C88S (Escherichia coli) (UniProt P0AC51).
T2 sequence (looked up, limits assumed): T1 sequence (looked up, limits assumed) with C88S, S103C
The note with it: EMSA: 10 mM Tris pH 8.0, 10 mM NaCl, 100 mM K-glutamate, 167 mM KCl, 1.5 mM MgCl2, 1 mM CaCl2, 50 uM ZnSO4, 1 mM DTT, 0.1 ug/ml BSA, 2 ug/ml salmon sperm DNA, recombinant protein, label: 5'-Cy5 on strand 1.

Data set [3] concerns the target T3, Zur D49A (Escherichia coli) (UniProt P0AC51).
T3 sequence (looked up, limits assumed): T1 sequence (looked up, limits assumed) with D49A, S103C
The note with it: 50 uM ZnSO4, Kd2, second dimer; EMSA: 10 mM Tris pH 8.0, 10 mM NaCl, 100 mM K-glutamate, 167 mM KCl, 1.5 mM MgCl2, 1 mM CaCl2, 50 uM ZnSO4, 1 mM DTT, 0.1 ug/ml BSA, 2 ug/ml salmon sperm DNA; recombinant protein; label: 5'-Cy5 on strand 1.

In data set [4] the target is T4, Zur R52A (Escherichia coli) (UniProt P0AC51).
T4 sequence (looked up, limits assumed): T1 sequence (looked up, limits assumed) with R52A, S103C
The note with it: 50 uM ZnSO4, Kd2, second dimer; EMSA: 10 mM Tris pH 8.0, 10 mM NaCl, 100 mM K-glutamate, 167 mM KCl, 1.5 mM MgCl2, 1 mM CaCl2, 50 uM ZnSO4, 1 mM DTT, 0.1 ug/ml BSA, 2 ug/ml salmon sperm DNA; recombinant protein; label: 5'-Cy5 on strand 1.

[5] abbreviates: Zn-loaded protein, no excess Zn.

Where a chain is given by its changes, count along the chain named. Construct, isoform or probe ends are uncertain for at least one entry. For part of these data: A negative result means that nothing was seen under these conditions. Protein sequences can lack the tags named with them. For part of these data: Weaker means in comparison with the reference protein, sequence or condition of that experiment.

As for “CCGAATATGAGAAGTGTGATATTATAACATTTCATGACTACTGCAAGACGG (double strand) [PznuABC 51 bp]”, the binding result in data set [1] (setting [5]) is given as “no binding”; in data set [1] (excess Zn, 50 uM ZnSO4), “binds more weakly”; in data set [2] (setting [5]), “no binding”; in data set [2] (excess Zn, 50 uM ZnSO4), “binds more weakly”. Moreover, the Kd was found to be 0.065 µM in data set [3] and 0.22 µM in data set [4].

What is called Kd is the constant that tells how readily two partners part at equilibrium.
